# Measurements published in PubChem BioAssay AID1487 (National Center for Advancing Translational Sciences (NCATS), 2009).
# This is one part of the list. These are further read-outs of the screen, such as a control signal, another cell line or another target. No call is given for them. The list favours compounds with an active or inconclusive main result. Words in brackets tell the shape of the fitted curve; partial curves, single points and poor fits give uncertain potencies.
# Assay: qHTS Assay for Modulators of Lamin A Splicing
# Conditions: HeLa LMNA splicing GFP/RFP minigene ratio, 48 h
# Description: NCGC Assay Overview: Hutchinson-Gilford Progeria Syndrome (HGPS) is a pediatric premature aging disease caused by a spontaneous mutation in the lamin A/C (LMNA) gene. The mutation activates a cryptic splice site in the LMNA pre-mRNA which results in production of a pre-lamin A protein that cannot be processed properly. The mutant protein accumulates in the nucleus and negatively affects numerous cellular functions. Correction of the splicing defect in HGPS patient cells using a targeted oligonucleotide (exo11) leads to reversal of the cellular disease phenotypes. To identify small molecule modulators of aberrant LMNA splicing, a homogenous assay was constructed in HeLa cells that used a GFP containing minigene to report on correction of aberrant splicing in lamin A and a RFP (DsRed2) to report on cell viability, uniformity and nonspecific effects on the assay signal. This assay was adapted to laser-scanning microplate cytometry (Acumen, TTP Labtech) where miniaturization of the assay to a 1,536-well plate format was possible. References: Bowen, W. P.; Wylie, P. G. Application of Laser-Scanning Fluorescence Microplate Cytometry in High Content Screening. Assay Drug Dev Technol 2006;4:209-221. Scaffidi P, Misteli T. Reversal of the cellular phenotype in the premature aging disease Hutchinson-Gilford progeria syndrome. Nat.
# NCGC Assay Protocol Summary: Reagents/Controls: Stable clones expressing DsRed2 and lamin A-EGFP were generated by Cell and Molecular Technologies in S3 HeLa cells. HeLa cells were prepared for the assay when they were 70-90% confluent. The cells were counted and resuspended in Opti-MEM I (no phenol red; Gibco), 2% FBS, 1% penicillin/ streptomycin (Gibco) at concentration of 120 cells/uL concentration. The suspension was passed through a Falcon basket filter with pore size 40um (Beckton Dickson). Control titrations: column […] 1536-well plate contained a sixteen point titration (1:2 dilutions) in duplicate of ancitabine (Sigma: A8598) beginning at 40 uM final concentration. Column 2 contained a sixteen point titration (1:2 dilutions) of cycloheximide beginning at 1.4 mM final concentration. Column 3 contained ancitabine at 40 uM and column 4 contained was the vehicle control (0.5% DMSO final concentration). Assay Steps: 5 uL of HeLa cells were plated in Aurora LoBase black clear bottom (cyclic-olefin polymer) 1536-well plates at a final density of 600 cells/well. Controls and library compounds were added with a 1536-well pin array using the Kalypsys pin-tool. The plates were then incubated for 48 hrs in a cell-culture incubator (37 °C; 5% CO2, 98% humidity). Following incubation the plates were read on the Acumen Explorer using the 488 nm laser. Data was collected on objects between 10 and 100 um in size. Cell objects were defined by a 15 um width x 10 um depth filter. The ratio of the total object intensity in PMT1 (500-530 nm emission; GFP) over PMT3 (575-640 nm emission; RFP) was calculated for analysis. Keywords: NIH Roadmap, MLSCN, MLI, MLSMR, qHTS, NCGC, lamin A, Progeria, RNA splicing.
# [1] = measured here: RFP viability control channel
# [2] = measured here: GFP splicing reporter channel
SMILES,AC50 [1],AC50 [2]
CC(C)c1oc(=O)cc2c1[C@@H](O)[C@H]1OC(=O)[C@@]3(C)CC[C@@H](O)[C@@]2(C)C13 (stereo partly drawn),"15.8 µM [rising, partial curve]",–
C[N+]1=C(/C=C/Nc2ccccc2)C(C)(C)c2ccccc21,"20 µM [rising, single point]",–
CCOP(=S)(OCC)Oc1ccc2c(C)c(Cl)c(=O)oc2c1,"0.000794 µM [rising, full curve, poor fit]",–
O=C(COc1ccc(Br)cc1)N1CCN(Cc2c[nH]c3ccccc23)CC1,–,"14.1 µM [falling, single point]"
Cc1ccc(Cl)cc1NC(=O)N(Cc1ccc2c(c1)OCO2)C1CCN(Cc2ccccc2)CC1,–,"5.62 µM [falling, partial curve]"
Cc1c(C(=O)N2CCC3(CC2)OCCO3)sc2ncnc(N3CCN(c4ccccn4)CC3)c12,"31.6 µM [rising, single point]",–
Cc1ccc(CNC(=O)c2ccccc2NC(=O)c2nsc3ccccc23)cc1,"11.2 µM [falling, partial curve]","11.2 µM [falling, partial curve]"
COc1ccc(CC(=O)NC(=S)NNC(=O)COc2c(C)cccc2C)cc1,"22.4 µM [rising, partial curve]","3.55 µM [rising, partial curve, poor fit]"
C[C@]12CC[C@H]3[C@@H](CCC4C[C@H](O)CC[C@@]43C)[C@@H]1CC[C@@H]2O (stereo partly drawn),"0.00398 µM [falling, full curve, poor fit]",–
COc1ccc(N/N=C/c2c(O)n(-c3ccc(C)c(C)c3)c(=O)[nH]c2=O)cc1,"14.1 µM [rising, partial curve]","11.2 µM [rising, partial curve]"
CC1=NN=C(c2ccc(N)cc2)c2cc3c(cc2C1)OCO3,"4.47 µM [falling, partial curve, poor fit]",–
C=CC[C@]1(O)CCC2C3CCC4=CCCCC4C3CCC21C (stereo partly drawn),"0.708 µM [falling, single point]",–
Cc1ccc(Cn2cccc(C(=O)Nc3ccc4c(c3)OCO4)c2=O)cc1,"0.112 µM [falling, full curve, poor fit]","0.0178 µM [falling, partial curve, poor fit]"
C[C@]12C/C(=C/O)C(=O)C[C@@H]1CC[C@@H]1[C@@H]2CC[C@@]2(C)[C@H]1CC[C@]2(C)O,"25.1 µM [rising, single point]","12.6 µM [rising, single point]"
O=P(O)(O)C(Cl)(Cl)P(=O)(O)O,–,"0.0891 µM [falling, full curve]"
C[C@@]12CCC(=O)C=C1C=C[C@H]1[C@H]3CC[C@](O)(CCC(=O)O)[C@]3(C)CC[C@@H]12,"14.1 µM [falling, single point]","14.1 µM [falling, partial curve, poor fit]"

# Arranged by formula weight (ascending): some entries from above.
SMILES,AC50 [1],AC50 [2]
O=P(O)(O)C(Cl)(Cl)P(=O)(O)O,–,"0.0891 µM [falling, full curve]"
C[C@]12CC[C@H]3[C@@H](CCC4C[C@H](O)CC[C@@]43C)[C@@H]1CC[C@@H]2O (stereo partly drawn),"0.00398 µM [falling, full curve, poor fit]",–
CC1=NN=C(c2ccc(N)cc2)c2cc3c(cc2C1)OCO3,"4.47 µM [falling, partial curve, poor fit]",–
C=CC[C@]1(O)CCC2C3CCC4=CCCCC4C3CCC21C (stereo partly drawn),"0.708 µM [falling, single point]",–
CCOP(=S)(OCC)Oc1ccc2c(C)c(Cl)c(=O)oc2c1,"0.000794 µM [rising, full curve, poor fit]",–

# The results go on:

SMILES,AC50 [1],AC50 [2]
CCOC(=O)C(O)(c1ccc(N(C)C(=O)c2ccc(Cl)c(Cl)c2)cc1)C(F)(F)F (stereo not drawn),"20 µM [rising, single point]",–
CCOC(=O)c1ccc(NC(=O)CSc2cc(=O)n(CC)c3ccccc23)cc1,"0.0126 µM [falling, full curve, poor fit]","0.0224 µM [falling, full curve]"
COc1cccc(OC)c1C1=NCC(=O)Nc2c1oc1ccc(Br)cc21,"1.12 µM [rising, full curve, poor fit]",–
CC(=O)Nc1ccc(N(C(=O)Cn2nnc3ccccc32)C(C(=O)NC2CCCC2)c2ccc(O)c(O)c2)cc1 (stereo not drawn),"35.5 µM [rising, partial curve]","0.0562 µM [rising, full curve, poor fit]"
Cc1c(O)c(O)cc2c1CC=C1[C@]3(C)CC[C@]4(C)CC[C@@](C)(C(=O)O)CC4[C@]3(C)CC[C@]12C (stereo partly drawn),"12.6 µM [falling, partial curve]","22.4 µM [falling, single point]"
CCN(CC)C(=O)Oc1ccc(Cl)c2ccccc12,"11.2 µM [rising, single point]",–
O=C1NC(=S)N(c2ccccc2F)C(=O)/C1=C\c1cccs1,"31.6 µM [falling, single point]","35.5 µM [falling, single point]"
CC(C)(C)c1nc(N2CCN(C(=O)c3ccco3)CC2)c2nnn(Cc3ccccc3Cl)c2n1,"0.282 µM [rising, full curve, poor fit]",–
CC(=O)O.CC(=O)O.[Cd],"10 µM [falling, partial curve, poor fit]","2.82 µM [rising, partial curve]"
CCC(C)OC(=O)c1c(N)n(Cc2cccs2)c2nc3ccccc3nc12 (stereo not drawn),"1.26 µM [falling, partial curve]","1.26 µM [falling, partial curve]"
Oc1cc2c(cc1O)[C@H]1c3ccccc3CNC1CC2 (stereo partly drawn),"14.1 µM [falling, partial curve]","12.6 µM [falling, partial curve]"
N=c1c2c(n(Cc3ccc(Cl)cc3Cl)c3c1CCC3)CCCC2,"12.6 µM [rising, partial curve]",–
CC(=O)c1c(O)c(C)c(O)c(Cc2c(O)c3c(c(C(=O)/C=C/c4ccccc4)c2O)OC(C)(C)C=C3)c1O,"5.01 µM [rising, full curve]","3.98 µM [falling, full curve, poor fit]"
COC(=O)c1c(C)n(Cc2ccco2)c2ccc(O)cc12,"15.8 µM [rising, partial curve]",–
Cc1ccccc1N1C(=O)NC(=O)/C(=C\c2cc(Br)c(N3CCOCC3)o2)C1=O,"35.5 µM [falling, single point]","35.5 µM [falling, single point]"
Cc1cc(O)cc2c1O[C@](C)(CCC[C@H](C)CCC[C@H](C)CCCC(C)C)CC2,"0.891 µM [falling, single point]","0.00282 µM [falling, full curve, poor fit]"
